Data as given in PubChem BioAssay AID1487 (National Center for Advancing Translational Sciences (NCATS), 2009).
The campaign covered roughly 200,000 compounds. About 25 (0.01%) were called active. The shares of active, inactive and inconclusive entries below differ from those in the screen. Calls follow the shape of the dose curve; as a rule, active = well fitted inhibition curve with a large enough effect in the signal ratio, with a control signal flat (not every such curve was filed as active); inconclusive = small, poorly fitted or top-dose-only effect, or effect the other way, or a change in a side signal; inactive = flat fitted curve, though single readings scatter; the % refers to the signal ratio. Potencies beside an inconclusive call are fits to weak or partial responses and may not hold up.

experiment: qHTS Assay for Modulators of Lamin A Splicing; settings: HeLa LMNA splicing GFP/RFP minigene ratio, 48 h; ratio change, negative = inhibition: at 46.1 µM (top of the series) unless noted
How it was run: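 Read-out is the ratio of GFP to DsRed2 object intensity, acquired by 488 nm laser-scanning cytometry on HeLa lamin A-EGFP minigene reporter cells. Compound incubation 48 hrs at 37 °C in Opti-MEM with 2% FBS; DMSO 0.5% final.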
% is scaled to controls: 0 for no effect and ±100 for the full control effect; potency is read from the fitted curve at half-maximal effect.

Row | Structure (SMILES) | ratio change, negative = inhibition | Potency
1 | Cc1ccc2c(c1)cc1c(=O)[nH]ncn12 | inconclusive: 9.3% | 
2 | c1ccc2c(Nc3ccncc3)nc(-c3ccc4c(c3)OCO4)nc2c1 |  | inconclusive: 35.5 µM [cytotoxic, single point]
3 | COC(=O)C(C)NC(=O)C1CCCN1S(=O)(=O)c1cc(C)c(Cl)cc1C (stereo not drawn) | inconclusive: 6.88% | 
4 | COc1ccc(N(CC(=O)N2CCc3ccccc3C2)S(=O)(=O)c2ccccc2)cc1 | inconclusive: 5.56% [at 46 µM] | 
5 | FC(F)c1nnc2ccc(Cl)nn12 | inconclusive: -18.1% [at 46 µM] | 
6 | NC(=O)N1c2ccccc2CC(=O)c2ccccc21 | inconclusive: -4.32% | 
7 | CN1CCN(S(=O)(=O)c2ccc(Sc3nnnn3-c3ccccc3)c([N+](=O)[O-])c2)CC1 | inconclusive: -33.2% | 
8 | CCOC(=O)Cc1[nH]nc2c1C(c1ccoc1)C(C#N)=C(N)O2 (stereo not drawn) | inactive | 
9 | COc1ccc(-n2ccnc2SCC(=O)NCc2ccc3c(c2)OCO3)cc1 | inconclusive: -9.71% | 
10 | NNC(=S)NCc1ccc2c(c1)OCO2 | inconclusive: -2.43% | 
11 | CCN(CC(O)CON=C1c2ccccc2-c2ccccc21)S(=O)(=O)c1ccc(Cl)cc1 (stereo not drawn) | inconclusive: -42.2% | 
12 | Cc1nc2ccccc2c2oc(C(=O)NC3CC3)cc12 |  | inconclusive: 35.5 µM [falling, single point]
13 | OCCNc1ncnc2c1sc1nc(N3CCOCC3)c3c(c12)CCC3 |  | inconclusive: 10 µM [inhibitor, partial curve]
14 | N#CC1=C(N)C(C#N)(C#N)C(c2cccnc2)C2CN(C(=O)OCc3ccccc3)CC=C12 (stereo not drawn) | inactive | 
15 | CC(=O)Nc1c(C)nn(-c2ccccc2)c1N1CCC(C(=O)Nc2cc(F)ccc2F)CC1 | inconclusive: 0.575% [at 46 µM] | 
16 | O=C(CSc1nnnn1-c1cccc2ccccc12)Nc1ccc(N2CCOCC2)c(Cl)c1 | inactive | 
17 | CSCCC(N)C(=O)O (stereo not drawn) | inconclusive: -31.3% | 
18 | Oc1cc2ccccc2cc1-c1n[nH]c(=S)n1Cc1ccco1 | inconclusive: -2.13% [at 46 µM] | 
19 | CCOC(=O)c1ccc(N2CCN(c3ccccc3OC)CC2)c(NC(=O)Nc2ccc(CC)cc2)c1 | inconclusive: -9.58% [at 46 µM] | 
20 | CCOC(=O)c1c(C)noc1-c1ccco1 | inconclusive: 9.28% [at 46 µM] | 
21 | Cc1c2c(n3c(nc4ccccc43)c1C#N)N(CCN(C)C)CC2 | inconclusive: -27.4% [at 46 µM] | 
22 | CC12CCC(C(=O)N3CCc4ccccc43)(CC1=O)C2(C)C (stereo not drawn) | inconclusive: 5.53% | 
23 | O=C(CN1CCCCC1)Nc1ccc(N2CCCCCC2)cc1 | inconclusive: -3.1% [at 46 µM] | 
24 | CCc1cnc2c(c1SCC(=O)NCc1ccc(C)cc1)c(=O)n(C)c(=O)n2C | inconclusive: 3.38% [at 46 µM] | 
25 | CCSC1=NCCN1C(=O)c1c(-c2ccccc2Cl)noc1C | inconclusive: 2.28% [at 46 µM] | 
26 | C=CCn1c(SCC(=O)c2c(N)n(CCC)c(=O)n(C)c2=O)nc2sc(CC)cc2c1=O | inactive | 
27 | Cn1ccc2c(OCC(=O)Nc3ccc(OC(F)(F)F)cc3)cccc2c1=O | inactive | 

Copied from above, compounds 9 to 12
Row | Structure (SMILES) | ratio change, negative = inhibition | Potency
9 | COc1ccc(-n2ccnc2SCC(=O)NCc2ccc3c(c2)OCO3)cc1 | inconclusive: -9.71% | 
10 | NNC(=S)NCc1ccc2c(c1)OCO2 | inconclusive: -2.43% | 
11 | CCN(CC(O)CON=C1c2ccccc2-c2ccccc21)S(=O)(=O)c1ccc(Cl)cc1 (stereo not drawn) | inconclusive: -42.2% | 
12 | Cc1nc2ccccc2c2oc(C(=O)NC3CC3)cc12 |  | inconclusive: 35.5 µM [falling, single point]

The list goes on.

Row | Structure (SMILES) | ratio change, negative = inhibition | Potency
28 | COc1ccc2c(c1)CC/C(=C\Nc1ccc3c(c1)OCO3)C2=O | inactive | 
29 | Cc1noc(C)c1C(=O)Nc1sc2c(c1C(N)=O)CCC2 | inactive | 
30 | CCOc1ccc(C(C)NC(=O)Cc2ccccc2)cc1OCC (stereo not drawn) | inconclusive: 6.39% | 
31 | CCOC(=O)C1CCN(C(=O)c2cc3cc(Br)ccc3oc2=O)CC1 | inconclusive: 13.5% [at 46 µM] | 
32 | O=C(COc1ccc(Cl)cc1)Nc1ccc2nc(SCC(=O)N3CCOCC3)sc2c1 | inactive | 
33 | CC1CCN(S(=O)(=O)c2ccc(NC(=O)Cc3cccs3)cc2)CC1 | inactive | 
34 | Cc1ccc(-n2ncc(C(=O)NCc3ccccn3)c2C2CCN(C(=O)OC(C)(C)C)CC2)cc1C | inconclusive: -9.25% [at 46 µM] | 
35 | O=C(COC(=O)c1cc(-c2ccccc2Cl)nc2ccccc12)Nc1ncc(C(F)(F)F)cc1Cl | inactive | 
36 | O=C(Nc1ccc(C(F)(F)F)cc1)c1cc(S(=O)(=O)N2CCCc3ccccc32)ccc1F | inconclusive: -22% [at 46 µM] | 
37 | COc1cc(NC(=S)NCc2ccc(S(N)(=O)=O)cc2)c(OC)cc1Cl | inactive | 
38 | O=C(CN1CCC(n2nnc3cc(F)ccc32)CC1)NC1CCCCC1 | inconclusive: 16% | 
39 | COc1ccc(Nc2ncc3c(n2)CCN(Cc2cccc(F)c2F)C3)c(OC)c1 | inconclusive: -0.884% [at 46 µM] | 
40 | CCNc1ncc2nc(C)c(=O)n(CCc3ccccc3)c2n1 | inconclusive: -24.5% | 
41 | CCC(=O)Nc1cccc(NC(=O)CN2CCN(c3ccccc3OC)CC2)c1 | inconclusive: 8.13% | 
42 | CCOc1ncccc1C(=O)Nc1ccc(S(=O)(=O)NC2=NCCCCC2)cc1 | inconclusive: -15.8% [at 46 µM] | 
43 | CCOc1ccccc1NC(=O)c1cc(C(=O)Nc2ccccc2OCC)cc(N2C(=O)CCC2=O)c1 | inconclusive: 18.6% [at 46 µM] | 
44 | C=C(C)Cn1c(C)cc(C)c(S(=O)(=O)c2cccc(C)c2)c1=O | inconclusive: -1.22% [at 46 µM] | 
45 | CCN(CC)C(=O)c1sc2c(c1C)c(=O)n(Cc1ccccc1)c(=O)n2Cc1cc(C)ccc1C | inconclusive: 5.23% [at 46 µM] | 
46 | Cc1c(C(Nc2ccccn2)c2ccc(Cl)cc2)c(=O)n(-c2ccccc2)n1C (stereo not drawn) | inconclusive: 9.87% | 
47 | COc1ccc(C(C)(C)C)cc1S(=O)(=O)n1ccnc1C | inconclusive: -4% [at 46 µM] | 
48 | Cc1ccc(CSCCNC(=O)/C=C/c2ccc(Cl)cc2)cc1 | inconclusive: 43.3% | 
49 | Cc1cccc(NC(=O)COc2ccc(Br)cc2/C=N/O)c1 |  | inconclusive: 35.5 µM [falling, single point]
50 | CC(=O)N1CCC(N(CCN2CCOCC2)C(=S)Nc2ccccc2C)CC1 | inactive | 
51 | Cc1nnc(SCCN2CCOCC2)c2nn(-c3ccccc3F)c(C)c12 | inconclusive: 9.12% | 
52 | Nc1ccc2c(c1)C/C(=C/c1ccco1)C2=O | inconclusive: 7.87% | 
53 | Cc1ccc(-c2nnc(SCC(=O)NC(C)(C)C)nc2-c2ccc(C)cc2)cc1 | inconclusive: -17.4% [at 46 µM] | 
